Assay results reported in PubChem BioAssay AID2685 (National Center for Advancing Translational Sciences (NCATS), 2010).
Some of the results follow. Shown are side measurements of this screen, not its main read-out; they come without a call. The list favours compounds with an active or inconclusive main result. Words in brackets tell the shape of the fitted curve; partial curves, single points and poor fits give uncertain potencies.

Experiment: qHTS Assay for Lipid Storage Modulators in Drosophila S3 Cells;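 as to cell number change: cells counted by Cell Tracker Red CMTPX staining in the red channel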
Conditions: BODIPY lipid droplet fluorescence, 18-24 h; for cell number change: measured here: cell count max response, cells fed with added oleic acid
In short: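 Drosophila S3 cells got compounds at several concentrations plus oleic acid (400 uM solution). Laser-scanning cytometry with 488 nm excitation read lipid droplets at 500-530 nm and cells at 575-640 nm. Percent activity was relative to 20 uM Triacsin C.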

[1] = measured here: lipid fluorescence (Fed channel) AC50, cells fed with added oleic acid
[2] = measured here: cell number channel AC50, cells fed with added oleic acid

SMILES	cell number change [%]	AC50 [1]	AC50 [2]
O=C(C[n+]1cccc(C(=O)Nc2ccccc2)c1)c1ccc([N+](=O)[O-])cc1	17.1	–	–
CCCn1c(SCC(=O)Nc2cccc(S(=O)(=O)N(C)C)c2)nc2ccccc2c1=O	-23.9	0.146 µM [falling, full curve, poor fit]	–
O=C(N/N=C/c1ccc(O)c(O)c1)NC12CC3CC(CC(C3)C1)C2	-48.7	23.1 µM [falling, single point]	29.1 µM [falling, single point]
O=C(NCc1ccc(F)cc1)c1nc(-c2cccs2)no1	63.3	–	18.4 µM [rising, single point]
COc1cc2c3nnc(-c4ccc(F)cc4)c-3cn(Cc3ccc(C)cc3)c2cc1OC	-64.5	7.31 µM [falling, partial curve]	16.4 µM [falling, single point]
Cc1cc(C(=O)CN2C(=O)C3CC=CCC3C2=O)c(C)n1-c1ccccc1 (stereo unspecified)	-16.2	0.291 µM [rising, partial curve, poor fit]	–
Cc1cccnc1NC(=O)C1CCN(S(=O)(=O)c2cccs2)CC1	83.9	4.61 µM [rising, full curve, poor fit]	0.116 µM [rising, full curve]
COCCNC(=O)c1ccccc1NC(=O)CCSc1ccccc1	39.1	0.103 µM [rising, full curve]	5.17 µM [rising, single point]
COc1cc(N=C(N)N=C(N)N)cc(OC)c1	-24.9	0.146 µM [falling, full curve, poor fit]	0.146 µM [falling, full curve, poor fit]
COc1ccc(/C=N\NC(=O)c2ccc(-c3ccccc3)cc2)cc1COC(C)=O	9.38	0.146 µM [rising, full curve, poor fit]	–
O=C(NN=C1CCCCCCC1)c1ccc2ccccc2n1	9.4	–	–
COc1ccc(NC(=O)COC(=O)CCCOc2ccc(Cl)cc2Cl)cc1Cl	-16.7	–	–
Cc1ccc(S(=O)(=O)NC2CC2)s1	-8.53	–	–
CCOc1ccccc1NC(=O)COc1coc(CN2CCCc3ccccc32)cc1=O	-20.6	–	–
COc1ccccc1CCNC(=O)C(=O)NCC1OCCN1S(=O)(=O)c1ccc(Br)cc1 (stereo unspecified)	-28.6	0.082 µM [falling, full curve, poor fit]	–
CCCC(=O)Nc1nnc(SCC(=O)NC2CC2)s1	7.26	18.4 µM [falling, partial curve, poor fit]	–
COc1ccc(C(=O)NCc2nc(C)c(C)s2)cc1OC1CCN(C(C)C)CC1	23.7	8.2 µM [rising, partial curve]	–
Cc1ccccc1NC(=S)NCc1ccc2c(c1)cc(C)n2C	16.5	13 µM [rising, partial curve]	–
O=c1c2ccccc2nc(-c2ccccc2)n1CCCn1ccnc1	-7.03	25.9 µM [rising, partial curve, poor fit]	–
COc1ccccc1N(C)S(=O)(=O)c1ccc(C(=O)N(C)Cc2ccc(Cl)s2)cc1	-59.8	–	16.4 µM [falling, partial curve]

SMILES	cell number change [%]	AC50 [1]	AC50 [2]
CN(C)c1ccc(NC(=O)CN2CCN(S(=O)(=O)c3cc(Cl)ccc3Cl)CC2)cc1	-11.8	7.31 µM [rising, partial curve]	–
CC1(C)c2[nH]c3ccccc3c2C[C@H]2C(=O)N(N)CC(=O)N21	0.826	–	–
CC1CCN(C(=O)CNC(=O)Cn2ccc3ccccc3c2=O)CC1	2.72	1.16 µM [falling, single point]	–
COc1ccc(CCNC(=O)CSc2ccccc2)cc1OC	-6.44	–	–
COc1ccc(COc2ccc(S(=O)(=O)N3CCCC3)cc2C(N)=O)cc1F	41.3	29.1 µM [rising, single point]	29.1 µM [rising, partial curve, poor fit]
COc1ccc(N2CC(C(=O)N(CC(C)C)c3c(N)n(Cc4ccccc4)c(=O)[nH]c3=O)CC2=O)c(OC)c1 (stereo unspecified)	6.59	9.2 µM [rising, partial curve, poor fit]	–
COCCN(C(=O)COC(=O)c1ccc2[nH]c(C)c(C)c2c1)c1c(N)n(Cc2ccccc2)c(=O)[nH]c1=O	-33.2	29.1 µM [falling, single point]	20.6 µM [falling, single point]
Cc1cc(C)n(CCc2nc(-c3ccc(F)cc3)cs2)n1	24	–	0.651 µM [rising, full curve, poor fit]
Cc1ccc2c(c1)sc(-c1ccc(N(C)C)cc1)[n+]2C	-36	–	5.17 µM [falling, full curve, poor fit]
CC1(C)CC2CC(C)(CN2S(=O)(=O)c2ccc(C(=O)Nc3ccc(S(=O)(=O)N4CCOCC4)cc3)cc2)C1 (stereo unspecified)	-5.63	25.9 µM [falling, partial curve]	–
O=C(NCCc1ccc2c(c1)OCCO2)c1ccc([N+](=O)[O-])cc1Cl	39.7	14.6 µM [rising, single point]	6.51 µM [rising, partial curve]
CCOc1ccc(-c2nc(CCl)cs2)cc1OC	14	0.282 µM [rising, full curve, poor fit]	–
O=C(NCCc1ccccc1)c1c[nH]c2c(F)cccc2c1=O	6.02	23.1 µM [rising, single point]	–
CNC(=S)NCCN1CCOCC1	–	–	3.66 µM [rising, partial curve]
COc1cc(C#Cc2c(-c3ccccc3)n(C)c3ccccc23)cc(OC)c1	38.8	11.6 µM [falling, single point]	13 µM [rising, partial curve]
O=C(NCC1COc2ccccc2O1)C1CCN(S(=O)(=O)c2cccc3nsnc23)CC1 (stereo unspecified)	-10.9	20.6 µM [falling, single point]	–
CC(C)(C)c1ccc(S(=O)(=O)NCC(=O)N2CCCC2)cc1	10.6	29.1 µM [rising, single point]	–
COc1ccc(Oc2nc(-c3ccccc3)ncc2S(=O)(=O)c2ccccc2)cc1	–	0.0058 µM [rising, full curve, poor fit]	–
CC(C)(O)C#Cc1ccccc1C(=O)NC(CC(N)=O)C(=O)O (stereo unspecified)	–	–	3.66 µM [falling, single point]
O=S(=O)(c1ccc(Oc2ccc(Br)cc2)cc1)N1CCOCC1	–	11.6 µM [falling, partial curve, poor fit]	–

SMILES	cell number change [%]	AC50 [1]	AC50 [2]
Cc1c(/C=N/n2cnnc2)c2ccccc2n1CCOc1ccccc1	-29.2	18.4 µM [rising, single point]	–
O=C1c2ccccc2NC(c2ccccn2)N1c1ccc(Cl)cc1 (stereo unspecified)	0.0503	–	–
O=S(=O)(Nc1nc2ccccc2nc1Cl)c1ccc(Br)cc1	7.71	4.61 µM [rising, single point]	–
COCCN(CCOC)c1nc(S(=O)(=O)c2ccc(C)cc2)c(Cl)s1	40.2	4.11 µM [rising, single point]	9.2 µM [rising, partial curve]
CC#C[C@]1(O)CC[C@H]2[C@@H]3CCC4=CC(=O)CCC4=C3[C@@H](c3ccc(N(C)C)cc3)C[C@@]21C	31.1	18.4 µM [rising, partial curve]	–
CC(C)NC(=O)c1ccccc1NC(=O)/C=C/c1cccc([N+](=O)[O-])c1	-71.7	23.1 µM [falling, single point]	16.4 µM [falling, partial curve]
COc1ccc(C(=O)Nc2nc(C)c(C(C)=O)s2)cc1S(=O)(=O)N1CCOCC1	-5.84	–	–
COC(=O)c1c(NC(=O)C2(C)Cc3ccccc3C(=O)O2)sc2c1CCCC2 (stereo unspecified)	6.17	2.06 µM [rising, partial curve]	–
CN(CC(=O)Nc1ccccc1Cl)C(=O)COC(=O)/C=C/c1cccs1	-3.01	0.82 µM [rising, full curve, poor fit]	–
O=C(Cc1ccc2c(c1)CCCC2)Nc1ccc2ccccc2c1	–	–	0.731 µM [falling, single point]
CCN(CC)S(=O)(=O)c1ccc(S(=O)(=O)NCc2cccs2)cc1	21.1	–	4.61 µM [rising, single point]
O=C(Oc1cccc(O)c1)C1CCCCC1	20.6	5.17 µM [falling, single point]	–
O=C(Nc1ccc(NC(=O)c2ccccc2F)cn1)c1ccco1	36.8	–	–
CCOc1ccc(C(=O)NC(=S)Nc2cccc(S(=O)(=O)NC3=NCCC3)c2)cc1	82.6	–	–
CCOc1ccc(CCNC(=O)C2CC=CCC2C(=O)OC(C)C)cc1OCC (stereo unspecified)	-18	18.4 µM [falling, single point]	–
O=C1CCCc2ccccc2N1Cc1ccc(F)cc1	0.264	–	0.291 µM [falling, single point]
CCCc1[nH]nc2c1C(c1cc(OC)ccc1F)C(C#N)=C(N)O2 (stereo unspecified)	-50.1	18.4 µM [falling, single point]	16.4 µM [falling, partial curve]
O=C(NCCC1=CCCCC1)C1CCN(S(=O)(=O)c2cccc(C(F)(F)F)c2)CC1	-6.19	7.31 µM [falling, partial curve]	–
O=C(NCc1n[nH]c(=S)n1-c1ccccc1)c1cccs1	-18	6.51 µM [rising, single point]	–
CC(=Nc1ccc2c(c1)nc(CO)n2C)C1=C(O)CC(C)(C)CC1=O	–	0.82 µM [falling, full curve]	2.31 µM [falling, partial curve, poor fit]

2 consecutive records out of the list so far:
SMILES	cell number change [%]	AC50 [1]	AC50 [2]
CCN(CC)S(=O)(=O)c1ccc(S(=O)(=O)NCc2cccs2)cc1	21.1	–	4.61 µM [rising, single point]
O=C(Oc1cccc(O)c1)C1CCCCC1	20.6	5.17 µM [falling, single point]	–
